In patent publication US20140137274A1, “INDUCED MALIGNANT STEM CELLS” (LSIP, LLC, priority 2011, published 2014):

Test system: endogenous cancer-related proteins
Assay: protein identification analysis (iTRAQ labeling, MALDI TOF/MS)
Set-up: species or system human
Conditions: for Relative quantity (test vs control) Ratio cc4-d/ ncc4: protein amount in cc4-d relative to ncc4 (colon non-cancer tissues, negative control); for Relative quantity (test vs control) Ratio cc4/ ncc4: protein amount in cc4 relative to ncc4 (colon non-cancer tissues, negative control)

Row | Substance | Relative quantity (test vs control) Ratio cc4-d/ ncc4 | Relative quantity (test vs control) Ratio cc4/ ncc4
1 | Annexin A2 [Annexin A2 [Homo sapiens]] | 0.848 | 0.7956
2 | LGALS3 [LGALS3 [Homo sapiens]] | 1.402 | 0.7576
3 | PREDICTED: tubulin alpha-1A chain isoform 2 [Xenopus (Silurana) tropicalis] | 0.9819 | 1.129
4 | Tubulin, beta 2C [Tubulin, beta 2C [Homo sapiens]] | 0.7019 | 0.9776
5 | enolase 1 variant [enolase 1 variant [Homo sapiens]] | 1.012 | 1.199
6 | glyceraldehyde-3-phosphate dehydrogenase [Homo sapiens] | 1.144 | 1.006
7 | heat shock 70 kDa protein 8 isoform 1 variant [Homo sapiens] | 1.527 | 1.086
8 | heat shock protein HSP 90-beta [Homo sapiens] | 1.044 | 1.161
9 | hemoglobin subunit beta [hemoglobin subunit beta [Homo sapiens]] | 0.4811 | 1.496
10 | serum albumin preproprotein [Homo sapiens] | 0.4545 | 0.6119
11 | spectrin, alpha, non-erythrocytic 1 (alpha-fodrin) variant [Homo sapiens] | 1.018 | 0.8716
12 | tumor rejection antigen (gp96) 1 [Homo sapiens] | 0.8476 | 1.098
